For assay [1], the target named is gliotoxin thiomethyltransferase A (GtmA) (Aspergillus fumigatus) (UniProt Q4X158). The assay is described as follows: SEC; size exclusion chromatography of purified GtmA (electronic supplementary figure S1); conditions of this run not given; both purified. (Size exclusion chromatography separates by hydrodynamic size, large species first.)
For assay [2] the target is unchanged. The assay is described as follows: crystal structure; GtmA-SAH complex, space group P2_(1), two monomers in the asymmetric unit; dimer assessed with PDBePISA; 1.33 Å; both purified.

Protein sequences, listed by entry. Tags and fused reporters are not part of them.
UniProt Q4X158: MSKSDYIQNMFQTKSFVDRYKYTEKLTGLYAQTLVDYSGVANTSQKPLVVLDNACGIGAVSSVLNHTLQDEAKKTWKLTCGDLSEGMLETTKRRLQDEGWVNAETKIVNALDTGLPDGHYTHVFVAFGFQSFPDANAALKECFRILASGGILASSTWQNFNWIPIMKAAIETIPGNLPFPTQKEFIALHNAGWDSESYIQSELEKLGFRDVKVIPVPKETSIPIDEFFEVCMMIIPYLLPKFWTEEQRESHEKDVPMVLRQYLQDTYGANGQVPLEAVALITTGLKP

The record followed here is paper PMC5356443, “Structural, mechanistic and functional insight into gliotoxin bis-thiomethylation in Aspergillus fumigatus” (Open Biology, 2017).

These are yes or no findings as the source states them, for the method shown.

For “gliotoxin thiomethyltransferase A (GtmA) (from UniProt Q4X158 1-287) (enzyme)”, the binding entry in assay [1] and in assay [2] was “no binding” in each case.
